Patent publication US8846066B2, “Methods and related compositions for reduction of fat and skin tightening” (The Regents of the University of California, priority 2004, dated 2014)
At least one compound was matched to its structure with a doubt left.

Columns and labels:
[1] = critical micellar concentration in H2O; cited from earlier work
lipomas [2] = test: Injection of DC solutions into lipomas of patients (Example 4); type: in vivo, human
Protocol: Patients having lipomas, benign, isolated collections of adipose tissue, were injected with sodium deoxycholate (DC) solutions without phosphatidylcholine directly into the lipoma. […] A lipoma from one patient, injected with 1% DC, was excised after treatment and pathological and histological analysis performed. Within the excised lipoma, necrosis is visible grossly (FIG. 6a) with a well demarcated area of hemorrhage and necrosis on the lateral edge extending into the middle of the lipoma fat which contrasts with the normal lipoma fat which is lighter in color.

lipomas [3] = test: Human lipoma study with sodium deoxycholate (Example 10); type: in vivo
Protocol: Six patients having 12 lipomas were injected with sodium deoxycholate (DC) solutions over a period of six months. […] Measurements were made by physical measurements and ultrasound imaging.

## C[C@H](CCC(=O)[O-])[C@H]1CC[C@H]2[C@@H]3CC[C@@H]4C[C@H](O)CC[C@]4(C)[C@H]3C[C@H](O)[C@]12C.[Na+] [DC, sodium deoxycholate]
[1]
  CMC in H2O: 5 mM
Lipomas [2]; Lipoma 1, pre-treatment 2.00 × 1.00, 2 treatments (2.5% DC)
  Size(cm) Post-treatment: 1.25 × 0.50 cm
Lipomas [2]; Lipoma 2, pre-treatment 2.00, 3 treatments (5% and 2.5% DC)
  Size(cm) Post-treatment: 1.50 × 0.50 cm
Lipomas [2]; Lipoma 3, pre-treatment 2.00 × 2.50, 3 treatments (5% and 2.5% DC)
  Size(cm) Post-treatment: 2.00 × 1.00 cm
Lipomas [2]; Lipoma 4, pre-treatment 4.00 × 1.75, 2 treatments (1% DC)
  Size(cm) Post-treatment: 2.50 × 2.00 cm
Lipomas [3]; Lipoma 2, pre-treatment size 2 cm, 3 treatments
  Post-treatment size: 1.0, 0.3, 0.5
Lipomas [3]; Lipoma 3, pre-treatment size 2 × 2.5 cm, 3 treatments
  Post-treatment size: 1 × 1.5
Lipomas [3]; Lipoma 9, pre-treatment size 2 × 1 cm, 2 treatments
  Post-treatment size: 1.2 × 0.8
Lipomas [3]; Lipoma 11, pre-treatment size 2 cm, 1 treatment
  Post-treatment size: 1.4 × 1
